# Screen size: about 300,000 compounds; about 5,400 (1.8%) were called active. Inconclusive results, whose numbers are uncertain, are shown with a selection of clear calls. Calls follow the shape of the full dose curve; tested in HEK293 cells. Where the call is inconclusive, the potency comes from a doubtful curve fit.
# Experiment: qHTS for inhibitors of binding or entry into cells for Marburg Virus
# Conditions: Marburg virus pseudotyped entry inhibition, cell reporter; activity change, negative = inhibition: at 37.8 µM (top of the series) unless noted
# % is scaled to controls: 0 for no effect and ±100 for the full control effect; potency is read from the fitted curve at half-maximal effect.
SMILES,Potency,"activity change, negative = inhibition"
CCOc1ccccc1OCCCC(=O)OCC(=O)Nc1cccc(Cl)c1,"inconclusive: 6.51 µM [inhibitor, single point]",–
Cn1c(=O)c2c(nc(N3CCN(Cc4ccccc4)CC3)n2CCCc2ccccc2)n(C)c1=O,"inconclusive: 25.1 µM [inhibitor, single point]",–
O=C(NCCN1CCc2ccccc2C1)C1CC(=O)N(C2CCCC2)C1 (centres undefined),"inconclusive: 0.73 µM [activator, full curve, poor fit]",–
CCC1SC(=NC(=O)c2ccc(Cl)c(Cl)c2)NC1=O (centres undefined),–,inactive: -3.28%
O=C(COC(=O)/C=C/c1ccc2c(c1)OCO2)NC1CC1,–,inactive: 18.4%
CCCCCC(=O)N1C[C@H](O)[C@@H](n2cc(-c3ccc(F)cc3)nn2)C[C@H]1c1ccc(OC)cc1,"inconclusive: 17.7 µM [inhibitor, partial curve, poor fit]",–
Cc1cc(C)c(S(=O)(=O)N2CCN(c3ccc([N+](=O)[O-])c(-n4nc(C)cc4C)c3)CC2)c(C)c1,"inconclusive: 6.51 µM [inhibitor, partial curve, poor fit]",–
O=S(=O)(c1ccccc1)N(Cc1nc(-c2ccccc2)no1)C1CCCCC1,"inconclusive: 25.1 µM [inhibitor, single point]",–
COc1ccccc1C(CNC(=O)COc1cc(C)ccc1Cl)N1CCCC1 (centres undefined),"inconclusive: 8.91 µM [inhibitor, partial curve, poor fit]",–
CCC(C)(C)NC(=O)c1cccc(NC(=O)C(C)C)c1,–,inactive: -2.58% [at 46.1 µM]
CCn1c2ccccc2c2cc(NC(=O)CSc3nnc(-c4ccc(OC)cc4)n3N)ccc21,"inconclusive: 6.51 µM [inhibitor, partial curve]",–
O=C1CC2c3ccccc3C1C1C(=O)N(CCO)C(=O)C21 (centres undefined),"inconclusive: 35.5 µM [inhibitor, single point]",–
C=CCn1c(N)c(C(=O)OC(C)(C)C)c2nc3ccccc3nc21,inactive,–
Cc1c(NP(=O)(c2ccc(Br)cc2)c2ccc(Br)cc2)c(=O)n(-c2ccccc2)n1C,"inconclusive: 35.5 µM [inhibitor, partial curve, poor fit]",–
COc1ccccc1Nc1nc(NCCCN(C)C)nc(N)c1[N+](=O)[O-],"inconclusive: 35.5 µM [inhibitor, single point]",–
COc1ccccc1Nc1cc(C(=O)NC2CCC(C)CC2)c2ccccc2n1 (centres undefined),–,inactive: 1.49% [at 46.1 µM]
CCc1ccc(/C(C)=N/NC(=O)CNC(=O)/C=C/c2ccccc2OC)cc1,"inconclusive: 11.2 µM [inhibitor, single point]",–
CCOC(=O)CSc1nc(-c2ccccc2)nc2ccccc12,–,inactive: -16.1%
Cc1ccccc1S(=O)(=O)NC1OC(=O)C(Cl)=C1Cl (centres undefined),"inconclusive: 0.282 µM [activator, partial curve, poor fit]",–
c1ccc(CC2CCN(C(c3cccs3)c3nnnn3C3CCCC3)CC2)cc1 (centres undefined),"inconclusive: 18.3 µM [inhibitor, partial curve, poor fit]",–
CCCn1cc(CN2CCCC(CNC(=O)c3ccc(F)cc3)C2)c(C)n1 (centres undefined),"inconclusive: 5.62 µM [inhibitor, single point]",–
CCCN(CCC)C(=O)CP(=O)(c1ccccc1)c1ccccc1,–,inactive: -3.14%
COC(=O)c1ccc(SC)cn1,"inconclusive: 0.0046 µM [inhibitor, full curve, poor fit]",–

# One compound at a time, from the list above. Values in the order: Potency	activity change, negative = inhibition
# `Cc1ccccc1S(=O)(=O)NC1OC(=O)C(Cl)=C1Cl` (centres undefined) is entered as inconclusive: 0.282 µM [activator, partial curve, poor fit]	–
# `c1ccc(CC2CCN(C(c3cccs3)c3nnnn3C3CCCC3)CC2)cc1` (centres undefined) is entered as inconclusive: 18.3 µM [inhibitor, partial curve, poor fit]	–
# `C=CCn1c(N)c(C(=O)OC(C)(C)C)c2nc3ccccc3nc21` is entered as inactive	–

# Continuation:

SMILES,Potency,"activity change, negative = inhibition"
O=C(c1cnn2c(C(F)(F)F)cc(-c3cccs3)nc12)N1CCN(C(c2ccccc2)c2ccccc2)CC1,active: 12.6 µM,–
COc1ccc(-n2c(C)nn(C)c2=O)cc1,–,inactive: 5.24%
Oc1ccccc1CNc1cccc2cccnc12,"inconclusive: 6.31 µM [inhibitor, single point]",–
Cc1oc2ccc(O)cc2c1C(=O)OC(C)C,–,inactive: 12.3%
COc1ccc(-c2noc(-c3cccnc3N3CCN(c4ccc(OC)cc4)CC3)n2)cc1,–,inactive: 2.8% [at 46.1 µM]
O=C(Nc1cccc(Cl)c1)c1ccc2c(c1)CCN2S(=O)(=O)c1ccccc1,"inconclusive: 0.562 µM [inhibitor, full curve, poor fit]",–
Cc1ccc(OCCn2ncc3ccccc3c2=O)c(C)c1,–,inactive: 4.76%
N#C/C(=C/c1ccco1)c1nc2ccccc2s1,"inconclusive: 29.1 µM [inhibitor, single point]",–
Cc1nc2cc(CO)ccc2n1C,–,inactive: 16.5% [at 46.1 µM]
CCOC(=O)C(O)(c1ccc(N(CC)C(=O)COc2ccccc2)cc1)C(F)(F)F (centres undefined),"inconclusive: 6.31 µM [inhibitor, partial curve, poor fit]",–
N#Cc1ccc(C(=O)N2CCN(c3ncccn3)CC2)cc1,"inconclusive: 1.26 µM [activator, single point]",–
CC(NCC(=O)Nc1ccccc1C(=O)NC1CC1)c1ccccc1Cl (centres undefined),–,inactive: -20.8%
CN(CC(=O)Nc1ccccc1C(F)(F)F)C(=O)CSCc1ccc(Cl)c(Cl)c1,"inconclusive: 10 µM [inhibitor, partial curve, poor fit]",–
CCOc1ccc2nc(SCC(=O)Nc3nonc3C)[nH]c2c1,"inconclusive: 1.26 µM [inhibitor, single point]",–
CCN(CC)C(=O)c1ccc(NC(=O)CNC(C)c2cccc3ccccc23)cc1 (centres undefined),"inconclusive: 8.91 µM [inhibitor, partial curve, poor fit]",–
Cc1ccc(C2=Nc3ccccc3N=C(c3ccco3)C2)c(O)c1,–,inactive: 10.8%
CCCCS(=O)(=O)/C=C\C=C/S(=O)(=O)CCCC,"inconclusive: 7.08 µM [inhibitor, partial curve, poor fit]",–
CCCCCCN1C[C@@H](O)[C@H](n2cc(-c3ccc(F)cc3)nn2)C[C@H]1c1ccc(OC)cc1,"inconclusive: 0.315 µM [inhibitor, full curve, poor fit]",–
O=C(c1ccc(F)cc1)N1C2CCC1CC(O)(c1ccc(F)cc1)C2 (centres undefined),–,inactive: -25.3%
Cc1ccc(-c2nc(C#N)c(NCc3ccco3)o2)cc1,–,inactive: 8.12%
CC(=O)c1cccc(NC(=O)COc2cc3oc(=O)c(CC(C)O)c(C)c3cc2Cl)c1 (centres undefined),"inconclusive: 35.5 µM [inhibitor, single point]",–
Cc1cccc(N2CCN(C(=O)N3CCCCC3)CC2)c1C,"inconclusive: 35.5 µM [inhibitor, single point]",–
O=C(NCCc1ccccc1)c1ccc(Cl)nc1,"inconclusive: 35.5 µM [inhibitor, single point]",–

SMILES,Potency,"activity change, negative = inhibition"
Cc1ccc(C(=O)CSc2nnc(-c3ccco3)n2C)cc1,"inconclusive: 6.31 µM [inhibitor, single point]",–
Cc1nc2ccccn2c1C(=O)CSc1ccccc1Cl,"inconclusive: 15.8 µM [inhibitor, single point]",–
Cc1nc2cc(NC(=O)c3ccc([N+](=O)[O-])s3)ccc2s1,"inconclusive: 7.94 µM [inhibitor, partial curve, poor fit]",–
C=CC(C)=C[C@@]1(C)SC(=O)C(C)=C1O,–,inactive: 2.15%
O=C1CN(Cc2ccccc2)C(=NCc2ccco2)S1,–,inactive: -6.06%
CCCc1oc2c(c(=O)c1CC)C(=O)CC(C)(C)C2,"inconclusive: 29.1 µM [activator, single point]",–
CNc1ccncc1S(=O)(=O)NC,"inconclusive: 5.01 µM [activator, partial curve, poor fit]",–
CCN1CCN(CCC(=O)Nc2ccccc2C)CC1,"inconclusive: 10 µM [inhibitor, partial curve]",–
Cc1cccc(NC(=O)Cn2cc(C(=O)c3ccco3)c3ccccc32)c1,"inconclusive: 3.16 µM [inhibitor, single point]",–
CN(C)/C=C(\C#N)C(=O)Nc1ccccc1,"inconclusive: 3.16 µM [activator, single point]",–
COc1ccc(N2CCN(C(=O)CCCC3=NS(=O)(=O)c4ccccc4N3)CC2)cc1,"inconclusive: 0.631 µM [inhibitor, full curve, poor fit]",–
Cc1ccc(C2=NC(=O)/C(=C/c3cc(O)c(O)c(Br)c3)S2)cc1,"inconclusive: 15.8 µM [inhibitor, single point]",–
CSc1ncc(-c2ccccc2)cn1,–,inactive: 0.449% [at 46.1 µM]
COc1cc(OC)cc(C(=O)NC2=NCCS2)c1,–,inactive: 17.4%
C/C(=N/NC(=O)C(O)(c1ccccc1)c1ccccc1)c1ccc([N+](=O)[O-])o1,"inconclusive: 11.2 µM [inhibitor, single point]",–
CCCCNc1cc(=O)oc2ccccc12,–,inactive: -15%
CN(CC(=O)Nc1ccc(S(=O)(=O)N2CCCC2)cc1)Cc1ccc(Cl)cc1,"inconclusive: 14.1 µM [inhibitor, single point]",–
CCOC(=O)c1sc(NC(=O)c2cccc(S(=O)(=O)N3c4ccccc4CC3C)c2)cc1C (centres undefined),"inconclusive: 35.5 µM [inhibitor, partial curve, poor fit]",–
C[C@]12CCC3C(CC[C@H]4C[C@H](O)CC[C@]34C)C1CC[C@@H]2C(=O)CO (some centres undefined),–,inconclusive: -19.4% [inhibitor]
CC(=O)c1cccc(N=Cc2c(O)ccc3ccccc23)c1,"inconclusive: 3.98 µM [inhibitor, partial curve, poor fit]",–
CC(=O)c1ccc(N2CCN(C(=O)CCC(=O)Nc3ccc4nc(N5CCN(C)CC5)cc(C)c4c3)CC2)cc1,"inconclusive: 35.5 µM [inhibitor, partial curve, poor fit]",–
N=c1c(C(=O)NCCN2CCOCC2)cc2c(=O)n3ccccc3nc2n1Cc1ccc(F)cc1,"inconclusive: 0.562 µM [inhibitor, partial curve, poor fit]",–
CCOC(=O)C(C(C)=O)C(c1ccc(OCCC(C)C)cc1)C(C(C)=O)C(=O)OCC (centres undefined),"inconclusive: 8.2 µM [inhibitor, partial curve, poor fit]",–

# — PubChem BioAssay AID540276 (National Center for Advancing Translational Sciences (NCATS), 2011)
